Results are given in words; binding and its absence hold for the method and conditions named. In cells and extracts the contact can be indirect. These calls come from enrichment with a bait or labelling near it, and not all partners need be listed. For some assays here: No binding means not detected with the bait.
Columns and labels:
[1] = biological target: N-terminal substrate-binding MATH domain of SPOP (SPOP^MATH), bait of the tandem affinity purification (UniProt O43791); test: affinity purification with mass spectrometry; tandem affinity purification (TAP-MS) of SPOP^MATH or SPOP^MATH(F102C) from 22Rv1 cells
[2] = biological target: PCa-associated mutant SPOP^MATH(F102C), control bait of the tandem affinity purification (UniProt O43791); test: as above

Protein sequences, listed by entry. Tags and fused reporters are not part of them. Lines headed by an entry give the natural chain unless they say otherwise; changes in a name come on top. Chains listed by the source or under a name are the forms on record and can include a tag or linker. Residues count along the entry.
N-terminal substrate-binding MATH domain of SPOP (SPOP^MATH), bait of the tandem affinity purification (O43791, residues 31-161): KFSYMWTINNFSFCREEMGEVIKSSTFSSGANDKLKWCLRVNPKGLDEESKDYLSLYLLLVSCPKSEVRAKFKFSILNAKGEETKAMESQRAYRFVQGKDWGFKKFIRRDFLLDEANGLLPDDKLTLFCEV
PCa-associated mutant SPOP^MATH(F102C), control bait of the tandem affinity purification (O43791, form named): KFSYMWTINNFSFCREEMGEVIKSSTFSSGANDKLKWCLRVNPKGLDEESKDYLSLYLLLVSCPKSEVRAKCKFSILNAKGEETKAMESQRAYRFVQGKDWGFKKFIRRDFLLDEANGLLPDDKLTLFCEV
UniProt Q13283: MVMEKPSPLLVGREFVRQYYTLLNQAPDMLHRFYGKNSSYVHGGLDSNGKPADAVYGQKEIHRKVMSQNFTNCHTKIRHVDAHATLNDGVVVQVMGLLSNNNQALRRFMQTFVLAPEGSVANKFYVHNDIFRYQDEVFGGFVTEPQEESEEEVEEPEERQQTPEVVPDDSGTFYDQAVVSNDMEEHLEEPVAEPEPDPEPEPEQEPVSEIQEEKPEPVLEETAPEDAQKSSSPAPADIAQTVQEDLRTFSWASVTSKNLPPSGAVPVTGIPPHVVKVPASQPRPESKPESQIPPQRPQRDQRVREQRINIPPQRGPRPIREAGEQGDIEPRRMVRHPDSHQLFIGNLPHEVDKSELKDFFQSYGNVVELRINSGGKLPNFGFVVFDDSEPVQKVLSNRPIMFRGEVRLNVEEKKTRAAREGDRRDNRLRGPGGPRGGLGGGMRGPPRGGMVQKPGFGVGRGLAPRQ

binding [1]: binds | binding [2]: no binding
Substance: GTPase Activating Protein (SH3 Domain) Binding Protein 1 (G3BP1), endogenous in 22Rv1 cells (from UniProt Q13283 1-466)
